Results as given in patent publication US10738093B2, “Discovery of cationic nonribosomal peptides as Gram-negative antibiotics through global genome mining” (The Hong Kong University of Science and Technology, priority 2018, dated 2020).
Some entries share one result that the patent states for a list of compounds. Positions of bridges follow the written chain, without caps; N, C: chain ends. Non-standard residues stand in square brackets, D forms with d. Residues, ends and D or L forms follow the SMILES beside them. ξ: configuration not given here. *: point of attachment. Octanoyl(7-Me) = CC(C)CCCCCC(=O)*; Hexanoyl(4ξ-Me) = CCC(C)CCC(=O)*; aThr = C[C@H](O)[C@H](N)C(=O)O; dOrn = NCCC[C@@H](N)C(=O)O; Orn = NCCC[C@H](N)C(=O)O

Test system: Gram-negative bacteria
Assay: MIC against Gram-negative bacteria
Assay type: cell-based
Conditions: range over Gram-negative bacteria

| SMILES | Minimal inhibitory concentration (MIC) values | Minimal inhibitory concentration (MIC) values (in molar units) |
| --- | --- | --- |
| CCC(C)CCC(=O)N[C@H](CC(N)=O)C(=O)N[C@H](Cc1ccc(O)cc1)C(=O)N[C@H](Cc1c[nH]c2ccccc12)C(=O)N[C@H](CCCN)C(=O)N[C@@H](CCCN)C(=O)NCC(=O)N[C@H](CCCN)C(=O)N[C@@H](Cc1c[nH]c2ccccc12)C(=O)N[C@@H]1C(=O)N[C@@H]([C@@H](C)CC)C(=O)NCC(=O)N[C@H](CO)C(=O)O[C@@H]1C (stereo partly drawn) [Compound 1, 4-Methyl-Hexanoyl-D-Asn-D-Tyr-D-Trp-D-Orn-Orn-Gly-D-Orn-Trp-Thr-Ile-Gly-Ser (cyclized via lactone formation between Thr and the C-terminus)] ({Hexanoyl(4ξ-Me)}-[dN][dY][dW][dOrn][Orn]G[dOrn]WTIG[dS]; ester 9-C) | 1 to 16 µg/mL | 0.66 to 10.5 µM |
| CC[C@H](C)[C@@H]1NC(=O)[C@@H](NC(=O)[C@H](Cc2c[nH]c3ccccc23)NC(=O)[C@@H](CCCN)NC(=O)CNC(=O)[C@H](CCCN)NC(=O)[C@@H](CCCN)NC(=O)[C@@H](Cc2c[nH]c3ccccc23)NC(=O)[C@@H](Cc2ccc(O)cc2)NC(=O)[C@@H](CO)NC(=O)CCCCCC(C)C)[C@H](C)OC(=O)CNC(=O)CNC(=O)[C@H](CC(N)=O)NC1=O [Compound 2, 7-Methyl-Octanoyl-D-Ser-D-Tyr-D-Trp-D-Orn-Orn-Gly-D-Orn-Trp-Thr-Ile-Asn-Gly-Gly (cyclized via lactone formation between Thr and the C-terminus)] ({Octanoyl(7-Me)}-[dS][dY][dW][dOrn][Orn]G[dOrn]W[aThr]INGG; ester 9-C) | 1 to 16 µg/mL | 0.66 to 10.5 µM |
